PubChem BioAssay AID1259405 | NCATS | 2018
The whole screen tested about 50,000 reagents; this is a part drawn at random. Of all reagents, about 4,000 (8%) got an active call. 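Mouse siRNA library applied to hamster cells; one well for each siRNA.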 Entries without a mark were called inactive. Reagents against one gene are numbered here. No sequences are given here.

Aim: 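Silenced genes that increase secreted GFP made by CHO cells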 (primary screen)
Cells: Chinese hamster CHO-K1 ovary cells with stable secreted eGFP expression
Reagents: single siRNA against mouse genes, 0.8 pmol siRNA per well (2 µl of 400 nM stock)
Timing: 3 days
Measured: 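Percent of the per-plate non-targeting control median for intracellular GFP per well by laser scanning cytometry and for cell viability by ATP luminescence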
Direction: GFP, % of control: higher = more GFP per well, higher productivity; viability (ATP), % of control: higher = more viable cells (more ATP)
Call rule: 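a knock-down is called active if GFP reaches 120% or more of non-targeting control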

gene symbol | reagent no. | GFP, % of control | viability (ATP), % of control
Rab5a (GeneID 271457) | 1 | 99.6 | 87.3
Rab5a (GeneID 271457) | 2 | 95.9 | 54.9
Rab5a (GeneID 271457) | 3 | 130 (active) | 95
Gpr50 (GeneID 14765) | 1 | 93.7 | 91.5
Gpr50 (GeneID 14765) | 2 | 69.5 | 63.8
Gpr50 (GeneID 14765) | 3 | 93.3 | 60.6
Zfp9 (GeneID 22750) | 1 | 38.6 | 77.5
Zfp9 (GeneID 22750) | 2 | 102 | 90.5
Tprn (GeneID 97031) | 1 | 74.2 | 92.7
Tprn (GeneID 97031) | 2 | 84 | 95.6
Tprn (GeneID 97031) | 3 | 85.9 | 95.8
Cep41 (GeneID 83922) | 1 | 53.2 | 53.5
Cep41 (GeneID 83922) | 2 | 77.5 | 69.3
Cep41 (GeneID 83922) | 3 | 67.5 | 67.5
Anxa6 (GeneID 11749) | 1 | 103 | 107
Anxa6 (GeneID 11749) | 2 | 66.8 | 84.7
Anxa6 (GeneID 11749) | 3 | 60.7 | 77.3
Rfxank (GeneID 19727) | 1 | 92.2 | 84
Rfxank (GeneID 19727) | 2 | 120 (active) | 93.9
Rfxank (GeneID 19727) | 3 | 84.8 | 94.9
Nupr1 (GeneID 56312) | 1 | 63.8 | 59.6
Nupr1 (GeneID 56312) | 2 | 120 | 62.1
Nupr1 (GeneID 56312) | 3 | 80.2 | 51.3
Alyreffm1 (GeneID 70988) | 1 | 79.1 | 85.1
Alyreffm1 (GeneID 70988) | 2 | 71.9 | 62.2
Alyreffm1 (GeneID 70988) | 3 | 83.3 | 93.5
Ube2g2 (GeneID 22213) | 1 | 35.4 | 51.5
Ube2g2 (GeneID 22213) | 2 | 106 | 80.6
Ube2g2 (GeneID 22213) | 3 | 96.9 | 125
1700065D16Rik (GeneID 73410) | 1 | 80 | 61.3
1700065D16Rik (GeneID 73410) | 2 | 53.7 | 49.6
1700065D16Rik (GeneID 73410) | 3 | 50.9 | 68.5
Flrt2 (GeneID 399558) | 1 | 137 (active) | 106
Flrt2 (GeneID 399558) | 2 | 116 | 52.6
Flrt2 (GeneID 399558) | 3 | 98.2 | 71.3
Esco1 (GeneID 77805) | 1 | 74.2 | 77.8
Esco1 (GeneID 77805) | 2 | 75.4 | 58.4
Esco1 (GeneID 77805) | 3 | 81.8 | 80.4
Rell1 (GeneID 100532) | 1 | 65.4 | 35.1
Rell1 (GeneID 100532) | 2 | 34.5 | 25
Rell1 (GeneID 100532) | 3 | 75.2 | 96.8
Klf4 (GeneID 16600) | 1 | 110 | 130
Klf4 (GeneID 16600) | 2 | 70 | 67.7
Klf4 (GeneID 16600) | 3 | 61.6 | 84.4
Semg1 (GeneID 53878) | 1 | 81.3 | 67.9
Semg1 (GeneID 53878) | 2 | 76 | 90
Semg1 (GeneID 53878) | 3 | 82.4 | 124
Htr1b (GeneID 15551) | 1 | 110 | 73.1
Htr1b (GeneID 15551) | 2 | 78.3 | 81.7
Htr1b (GeneID 15551) | 3 | 49.5 | 54.5
Itgbl1 (GeneID 223272) | 1 | 40.2 | 51.2
Itgbl1 (GeneID 223272) | 2 | 104 | 87.6
Itgbl1 (GeneID 223272) | 3 | 75.3 | 92.8
Lrp6 (GeneID 16974) | 1 | 72.6 | 83.5
Lrp6 (GeneID 16974) | 2 | 46.2 | 62.4
Lrp6 (GeneID 16974) | 3 | 147 (active) | 62.1
Rdh16 (GeneID 19683) | 1 | 53.2 | 42.7
Rdh16 (GeneID 19683) | 2 | 79.4 | 83.2
Rdh16 (GeneID 19683) | 3 | 84 | 64.5
Cd200r3 (GeneID 74603) | 1 | 74 | 81.6
Cd200r3 (GeneID 74603) | 2 | 53.4 | 75.5
Cd200r3 (GeneID 74603) | 3 | 98.2 | 68.6

Copied from the entries so far, 16 entries:
gene symbol | reagent no. | GFP, % of control | viability (ATP), % of control
Klf4 (GeneID 16600) | 3 | 61.6 | 84.4
Semg1 (GeneID 53878) | 1 | 81.3 | 67.9
Semg1 (GeneID 53878) | 2 | 76 | 90
Semg1 (GeneID 53878) | 3 | 82.4 | 124
Htr1b (GeneID 15551) | 1 | 110 | 73.1
Htr1b (GeneID 15551) | 2 | 78.3 | 81.7
Htr1b (GeneID 15551) | 3 | 49.5 | 54.5
Itgbl1 (GeneID 223272) | 1 | 40.2 | 51.2
Itgbl1 (GeneID 223272) | 2 | 104 | 87.6
Itgbl1 (GeneID 223272) | 3 | 75.3 | 92.8
Lrp6 (GeneID 16974) | 1 | 72.6 | 83.5
Lrp6 (GeneID 16974) | 2 | 46.2 | 62.4
Lrp6 (GeneID 16974) | 3 | 147 (active) | 62.1
Rdh16 (GeneID 19683) | 1 | 53.2 | 42.7
Rdh16 (GeneID 19683) | 2 | 79.4 | 83.2
Rdh16 (GeneID 19683) | 3 | 84 | 64.5

The list goes on:
gene symbol | reagent no. | GFP, % of control | viability (ATP), % of control
Ccs (GeneID 12460) | 1 | 86.8 | 48.6
Ccs (GeneID 12460) | 2 | 129 (active) | 120
Ccs (GeneID 12460) | 3 | 78.9 | 152
Trim23 (GeneID 81003) | 1 | 117 | 110
Trim23 (GeneID 81003) | 2 | 101 | 81.1
Trim23 (GeneID 81003) | 3 | 67.6 | 59.5
Mrpl47 (GeneID 74600) | 1 | 76.6 | 83.1
Mrpl47 (GeneID 74600) | 2 | 86.1 | 96.2
Mrpl47 (GeneID 74600) | 3 | 91.5 | 57.8
9130401M01Rik (GeneID 75758) | 1 | 134 (active) | 103
9130401M01Rik (GeneID 75758) | 2 | 73.1 | 75.5
9130401M01Rik (GeneID 75758) | 3 | 95.7 | 107
Ccin (GeneID 442829) | 1 | 78.4 | 65
Ccin (GeneID 442829) | 2 | 79.9 | 80.1
Apobr (GeneID 171504) | 1 | 110 | 56.1
Apobr (GeneID 171504) | 2 | 73 | 67.2
Apobr (GeneID 171504) | 3 | 92.5 | 75.5
Ocrl (GeneID 320634) | 1 | 78.3 | 67.4
Ocrl (GeneID 320634) | 2 | 59.9 | 45.5
Ocrl (GeneID 320634) | 3 | 88.3 | 94.3
Acoxl (GeneID 74121) | 1 | 106 | 48.3
Acoxl (GeneID 74121) | 2 | 82.3 | 66.3
Acoxl (GeneID 74121) | 3 | 47 | 64.3
Arfgap2 (GeneID 77038) | 1 | 113 | 139
Arfgap2 (GeneID 77038) | 2 | 80.4 | 80.9
Arfgap2 (GeneID 77038) | 3 | 72 | 70.1
Rpf2 (GeneID 67239) | 1 | 74.9 | 95.6
Rpf2 (GeneID 67239) | 2 | 49.1 | 43.5
Rpf2 (GeneID 67239) | 3 | 63.4 | 67
Malt1 (GeneID 240354) | 1 | 79.3 | 84.6
Malt1 (GeneID 240354) | 2 | 149 (active) | 98.1
Klk1b11 (GeneID 16613) | 1 | 79.8 | 54.3
Klk1b11 (GeneID 16613) | 2 | 80.2 | 55.9
Klk1b11 (GeneID 16613) | 3 | 61.5 | 48.9
Cetn4 (GeneID 207175) | 1 | 113 | 65.3
Cetn4 (GeneID 207175) | 2 | 57.2 | 54.3
Cetn4 (GeneID 207175) | 3 | 50.5 | 59.8
Mtfr1l (GeneID 76824) | 1 | 109 | 90.2
Mtfr1l (GeneID 76824) | 2 | 79.8 | 79.1
Mtfr1l (GeneID 76824) | 3 | 80.5 | 71.7
Klhl32 (GeneID 212390) | 1 | 67 | 77.7
Klhl32 (GeneID 212390) | 2 | 56.1 | 58.2
Klhl32 (GeneID 212390) | 3 | 90.3 | 67.1
Homer3 (GeneID 26558) | 1 | 62.6 | 51.8
Homer3 (GeneID 26558) | 2 | 105 | 81.2
Homer3 (GeneID 26558) | 3 | 142 (active) | 94.6
